# Measurements published in the supplement of paper PMC4604168 (melanoma cell lines).
# The other results are listed elsewhere or left out. Repeats are few or missing, and single values can be far off.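 The apoptosis fraction was the count of cleaved-PARP antibody-stained nuclei relative to all DNA-stained nuclei, imaged in 1,536-well plates. Screening doses were set so most cells survived, and baseline and induced cleaved-PARP levels vary greatly across cell lines.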
# Legend:
# Test in all cases: cleaved PARP positive nuclei fraction relative to DMSO control; melanoma cells; higher = more apoptosis
# Conditions in all cases: library dose: low library concentration; 72 h
# 501Mel = system: 501Mel
# A101D = system: A101D
# A2058 = system: A2058
# A375 = system: A375
# C32 = system: C32
# CBRC013 = system: CBRC013 (line from a melanoma biopsy)
# CBRC014 = system: CBRC014 (line from a melanoma biopsy)
# CBRC016 = system: CBRC016 (line from a melanoma biopsy)
# CBRC017 = system: CBRC017 (line from a melanoma biopsy)
# CBRC008 = system: CBRC008 (line from a melanoma biopsy)
SMILES,cleaved PARP positive nuclei fraction (501Mel) [%],cleaved PARP positive nuclei fraction (A101D) [%],cleaved PARP positive nuclei fraction (A2058) [%],cleaved PARP positive nuclei fraction (A375) [%],cleaved PARP positive nuclei fraction (C32) [%],cleaved PARP positive nuclei fraction (CBRC013) [%],cleaved PARP positive nuclei fraction (CBRC014) [%],cleaved PARP positive nuclei fraction (CBRC016) [%],cleaved PARP positive nuclei fraction (CBRC017) [%],cleaved PARP positive nuclei fraction (CBRC008) [%]
"O=C(O)c1ccc(-c2c[nH]c3ncc(-c4ccccc4)cc23)cc1C1CCCC1 + N#Cc1c(O)c2c(-c3ccc(-c4ccccc4O)cc3)csc2[nH]c1=O [A769662] (first compound 0.16 µM, partner dose 2 µM)",50.2,52.6,42.7,128,265,41,216,108,101,–
"CN(C)S(=O)(=O)c1ccc2c(c1)/C(=C/c1cc3c([nH]1)CCCC3)C(=O)N2 + c1cc(-c2cnn3cc(-c4ccc(OCCN5CCCCC5)cc4)cnc23)ccn1 [Dorsomorphin] (first compound 0.4 µM, partner dose 0.4 µM)",69.2,212,59.7,130,96.1,104,114,81.5,93.4,–
"NCC(=O)Nc1ccc(-n2nc(C(F)(F)F)cc2-c2ccc3c(ccc4ccccc43)c2)cc1 + CC(C)CCN1c2nc(Nc3cc(F)c(O)c(F)c3)ncc2N(C)C(=O)C1C [BID1870] (first compound 1 µM, partner dose 0.2 µM)",294,302,122,1530,60.4,26.9,129,83.8,89.1,–
"CN(C)S(=O)(=O)c1ccc2c(c1)/C(=C/c1cc3c([nH]1)CCCC3)C(=O)N2 + O=C(O)c1ccc(-c2c[nH]c3ncc(-c4ccccc4)cc23)cc1C1CCCC1 [GSK650394] (first compound 0.4 µM, partner dose 0.16 µM)",86.4,19.2,26.4,44.5,77.2,92.3,79.2,79.6,88.6,93.5
"Oc1cc(-c2nc(-c3ccccc3)[nH]c2-c2ccncc2)ccc1Cl + Oc1nc(-c2ccc(C(F)(F)F)cc2)nc2c1CSCC2 [XAV939] (first compound 0.2 µM, partner dose 2 µM)",179,74.8,125,194,115,43.5,88.5,53.4,76.3,–
"CCc1ccc(CCOc2ccc(CC3SC(=O)NC3=O)cc2)nc1 (stereo unspecified) [pioglitazone] + COc1ccc(COc2ccc(Cc3cnc(N)nc3N)cc2OC)cc1 [GW2580] (first compound 2 µM, partner dose 1 µM)",295,113,46.2,39.6,131,116,84.1,63.4,80.5,–
"COc1cc2ncnc(Nc3ccc(Oc4ccccc4)cc3)c2cc1OC + CCCCCCCCCCCC1=C(O)C(=O)C=C(O)C1=O [Embelin] (first compound 2 µM, partner dose 1.2 µM)",81.3,67,58.3,110,102,164,75,42.1,80.1,–
"COC(=O)c1sccc1S(=O)(=O)Nc1ccc(Nc2ccccc2)cc1OC + c1cc(-c2cnn3cc(-c4ccc(OCCN5CCCCC5)cc4)cnc23)ccn1 [Dorsomorphin] (first compound 1 µM, partner dose 0.4 µM)",71.9,268,132,72,71.1,81.6,111,101,89.3,–
"COc1ccc(COc2ccc(Cc3cnc(N)nc3N)cc2OC)cc1 + COc1cc2ncnc(Nc3ccc(Oc4ccccc4)cc3)c2cc1OC [SrcI1] (first compound 1 µM, partner dose 2 µM)",58.7,72.6,34.4,101,85.2,30.1,94.8,102,90.6,–
"NCC(=O)Nc1ccc(-n2nc(C(F)(F)F)cc2-c2ccc3c(ccc4ccccc43)c2)cc1 + COc1cc2c(Oc3ccc4[nH]c(C)cc4c3F)ncnc2cc1OCCCN1CCCC1 [cediranib] (first compound 1 µM, partner dose 0.4 µM)",851,77.1,42.8,3910,72.8,125,96.8,119,101,213
"CN(NC(=O)CC(=O)NN(C)C(=S)c1ccccc1)C(=S)c1ccccc1 + Oc1cc(-c2nc(-c3ccccc3)[nH]c2-c2ccncc2)ccc1Cl [L779450] (first compound 0.006 µM, partner dose 0.2 µM)",60.5,350,76.2,1500,165,145,549,255,114,–

# Shown as tab-separated lines: part of the list above
SMILES	cleaved PARP positive nuclei fraction (501Mel) [%]	cleaved PARP positive nuclei fraction (A101D) [%]	cleaved PARP positive nuclei fraction (A2058) [%]	cleaved PARP positive nuclei fraction (A375) [%]	cleaved PARP positive nuclei fraction (C32) [%]	cleaved PARP positive nuclei fraction (CBRC013) [%]	cleaved PARP positive nuclei fraction (CBRC014) [%]	cleaved PARP positive nuclei fraction (CBRC016) [%]	cleaved PARP positive nuclei fraction (CBRC017) [%]	cleaved PARP positive nuclei fraction (CBRC008) [%]
COC(=O)c1sccc1S(=O)(=O)Nc1ccc(Nc2ccccc2)cc1OC + c1cc(-c2cnn3cc(-c4ccc(OCCN5CCCCC5)cc4)cnc23)ccn1 [Dorsomorphin] (first compound 1 µM, partner dose 0.4 µM)	71.9	268	132	72	71.1	81.6	111	101	89.3	–
CN(NC(=O)CC(=O)NN(C)C(=S)c1ccccc1)C(=S)c1ccccc1 + Oc1cc(-c2nc(-c3ccccc3)[nH]c2-c2ccncc2)ccc1Cl [L779450] (first compound 0.006 µM, partner dose 0.2 µM)	60.5	350	76.2	1500	165	145	549	255	114	–
